From patent US20220387635A1, “PET IMAGING OF CANCEROUS CELLS USING 18F-FLUOROACETATE” (priority 2019, published 2022)

Test system: NALM-6 GFP-ffLuc tumor (leptomeningeal disease)
Assay: [18F]-fluoroacetate PET/CT and PET/MRI imaging of ALL/LMD mouse model
Type: in vivo

For `O=C(O)C[18F]` [[^18F]-fluoroacetate, ^18F-fluoroacetate], the “Radiotracer uptake by PET-CT vs control mouse” value (NSG mice with systemic NALM-6 GFP-ffLuc, i.v. tracer, static PET 1 h after injection) was “elevated uptake of the radiotracer throughout the central nervous system” and the “Radiotracer uptake by PET/MRI vs normal control mouse” value (mouse bearing systemic NALM-6 tumor, brain and spinal cord) was “specific uptake”.
